Assay results taken from PubChem BioAssay AID2662 (National Center for Advancing Translational Sciences (NCATS), 2010).
Among all 290,000 compounds or so, about 110 (0.038%) were called active. Inconclusive results, whose numbers are uncertain, are shown with a selection of clear calls. Calls come from the whole dose curve; as a rule, active = well fitted inhibition curve with a large enough effect in the polarisation, with a control signal flat (not every such curve was filed as active); inconclusive = small, poorly fitted or top-dose-only effect, or effect the other way, or a change in a side signal; inactive = no such curve, though single readings can be large or run the other way; the % refers to the polarisation. Where the call is inconclusive, the potency comes from a doubtful curve fit. A note “side channel” means that the fit belongs to a control or component signal, not to the main read-out.

Sequences of proteins named here, by UniProt entry; tags and fusion partners are left off.
UniProt Q03164, whole entry, looked up: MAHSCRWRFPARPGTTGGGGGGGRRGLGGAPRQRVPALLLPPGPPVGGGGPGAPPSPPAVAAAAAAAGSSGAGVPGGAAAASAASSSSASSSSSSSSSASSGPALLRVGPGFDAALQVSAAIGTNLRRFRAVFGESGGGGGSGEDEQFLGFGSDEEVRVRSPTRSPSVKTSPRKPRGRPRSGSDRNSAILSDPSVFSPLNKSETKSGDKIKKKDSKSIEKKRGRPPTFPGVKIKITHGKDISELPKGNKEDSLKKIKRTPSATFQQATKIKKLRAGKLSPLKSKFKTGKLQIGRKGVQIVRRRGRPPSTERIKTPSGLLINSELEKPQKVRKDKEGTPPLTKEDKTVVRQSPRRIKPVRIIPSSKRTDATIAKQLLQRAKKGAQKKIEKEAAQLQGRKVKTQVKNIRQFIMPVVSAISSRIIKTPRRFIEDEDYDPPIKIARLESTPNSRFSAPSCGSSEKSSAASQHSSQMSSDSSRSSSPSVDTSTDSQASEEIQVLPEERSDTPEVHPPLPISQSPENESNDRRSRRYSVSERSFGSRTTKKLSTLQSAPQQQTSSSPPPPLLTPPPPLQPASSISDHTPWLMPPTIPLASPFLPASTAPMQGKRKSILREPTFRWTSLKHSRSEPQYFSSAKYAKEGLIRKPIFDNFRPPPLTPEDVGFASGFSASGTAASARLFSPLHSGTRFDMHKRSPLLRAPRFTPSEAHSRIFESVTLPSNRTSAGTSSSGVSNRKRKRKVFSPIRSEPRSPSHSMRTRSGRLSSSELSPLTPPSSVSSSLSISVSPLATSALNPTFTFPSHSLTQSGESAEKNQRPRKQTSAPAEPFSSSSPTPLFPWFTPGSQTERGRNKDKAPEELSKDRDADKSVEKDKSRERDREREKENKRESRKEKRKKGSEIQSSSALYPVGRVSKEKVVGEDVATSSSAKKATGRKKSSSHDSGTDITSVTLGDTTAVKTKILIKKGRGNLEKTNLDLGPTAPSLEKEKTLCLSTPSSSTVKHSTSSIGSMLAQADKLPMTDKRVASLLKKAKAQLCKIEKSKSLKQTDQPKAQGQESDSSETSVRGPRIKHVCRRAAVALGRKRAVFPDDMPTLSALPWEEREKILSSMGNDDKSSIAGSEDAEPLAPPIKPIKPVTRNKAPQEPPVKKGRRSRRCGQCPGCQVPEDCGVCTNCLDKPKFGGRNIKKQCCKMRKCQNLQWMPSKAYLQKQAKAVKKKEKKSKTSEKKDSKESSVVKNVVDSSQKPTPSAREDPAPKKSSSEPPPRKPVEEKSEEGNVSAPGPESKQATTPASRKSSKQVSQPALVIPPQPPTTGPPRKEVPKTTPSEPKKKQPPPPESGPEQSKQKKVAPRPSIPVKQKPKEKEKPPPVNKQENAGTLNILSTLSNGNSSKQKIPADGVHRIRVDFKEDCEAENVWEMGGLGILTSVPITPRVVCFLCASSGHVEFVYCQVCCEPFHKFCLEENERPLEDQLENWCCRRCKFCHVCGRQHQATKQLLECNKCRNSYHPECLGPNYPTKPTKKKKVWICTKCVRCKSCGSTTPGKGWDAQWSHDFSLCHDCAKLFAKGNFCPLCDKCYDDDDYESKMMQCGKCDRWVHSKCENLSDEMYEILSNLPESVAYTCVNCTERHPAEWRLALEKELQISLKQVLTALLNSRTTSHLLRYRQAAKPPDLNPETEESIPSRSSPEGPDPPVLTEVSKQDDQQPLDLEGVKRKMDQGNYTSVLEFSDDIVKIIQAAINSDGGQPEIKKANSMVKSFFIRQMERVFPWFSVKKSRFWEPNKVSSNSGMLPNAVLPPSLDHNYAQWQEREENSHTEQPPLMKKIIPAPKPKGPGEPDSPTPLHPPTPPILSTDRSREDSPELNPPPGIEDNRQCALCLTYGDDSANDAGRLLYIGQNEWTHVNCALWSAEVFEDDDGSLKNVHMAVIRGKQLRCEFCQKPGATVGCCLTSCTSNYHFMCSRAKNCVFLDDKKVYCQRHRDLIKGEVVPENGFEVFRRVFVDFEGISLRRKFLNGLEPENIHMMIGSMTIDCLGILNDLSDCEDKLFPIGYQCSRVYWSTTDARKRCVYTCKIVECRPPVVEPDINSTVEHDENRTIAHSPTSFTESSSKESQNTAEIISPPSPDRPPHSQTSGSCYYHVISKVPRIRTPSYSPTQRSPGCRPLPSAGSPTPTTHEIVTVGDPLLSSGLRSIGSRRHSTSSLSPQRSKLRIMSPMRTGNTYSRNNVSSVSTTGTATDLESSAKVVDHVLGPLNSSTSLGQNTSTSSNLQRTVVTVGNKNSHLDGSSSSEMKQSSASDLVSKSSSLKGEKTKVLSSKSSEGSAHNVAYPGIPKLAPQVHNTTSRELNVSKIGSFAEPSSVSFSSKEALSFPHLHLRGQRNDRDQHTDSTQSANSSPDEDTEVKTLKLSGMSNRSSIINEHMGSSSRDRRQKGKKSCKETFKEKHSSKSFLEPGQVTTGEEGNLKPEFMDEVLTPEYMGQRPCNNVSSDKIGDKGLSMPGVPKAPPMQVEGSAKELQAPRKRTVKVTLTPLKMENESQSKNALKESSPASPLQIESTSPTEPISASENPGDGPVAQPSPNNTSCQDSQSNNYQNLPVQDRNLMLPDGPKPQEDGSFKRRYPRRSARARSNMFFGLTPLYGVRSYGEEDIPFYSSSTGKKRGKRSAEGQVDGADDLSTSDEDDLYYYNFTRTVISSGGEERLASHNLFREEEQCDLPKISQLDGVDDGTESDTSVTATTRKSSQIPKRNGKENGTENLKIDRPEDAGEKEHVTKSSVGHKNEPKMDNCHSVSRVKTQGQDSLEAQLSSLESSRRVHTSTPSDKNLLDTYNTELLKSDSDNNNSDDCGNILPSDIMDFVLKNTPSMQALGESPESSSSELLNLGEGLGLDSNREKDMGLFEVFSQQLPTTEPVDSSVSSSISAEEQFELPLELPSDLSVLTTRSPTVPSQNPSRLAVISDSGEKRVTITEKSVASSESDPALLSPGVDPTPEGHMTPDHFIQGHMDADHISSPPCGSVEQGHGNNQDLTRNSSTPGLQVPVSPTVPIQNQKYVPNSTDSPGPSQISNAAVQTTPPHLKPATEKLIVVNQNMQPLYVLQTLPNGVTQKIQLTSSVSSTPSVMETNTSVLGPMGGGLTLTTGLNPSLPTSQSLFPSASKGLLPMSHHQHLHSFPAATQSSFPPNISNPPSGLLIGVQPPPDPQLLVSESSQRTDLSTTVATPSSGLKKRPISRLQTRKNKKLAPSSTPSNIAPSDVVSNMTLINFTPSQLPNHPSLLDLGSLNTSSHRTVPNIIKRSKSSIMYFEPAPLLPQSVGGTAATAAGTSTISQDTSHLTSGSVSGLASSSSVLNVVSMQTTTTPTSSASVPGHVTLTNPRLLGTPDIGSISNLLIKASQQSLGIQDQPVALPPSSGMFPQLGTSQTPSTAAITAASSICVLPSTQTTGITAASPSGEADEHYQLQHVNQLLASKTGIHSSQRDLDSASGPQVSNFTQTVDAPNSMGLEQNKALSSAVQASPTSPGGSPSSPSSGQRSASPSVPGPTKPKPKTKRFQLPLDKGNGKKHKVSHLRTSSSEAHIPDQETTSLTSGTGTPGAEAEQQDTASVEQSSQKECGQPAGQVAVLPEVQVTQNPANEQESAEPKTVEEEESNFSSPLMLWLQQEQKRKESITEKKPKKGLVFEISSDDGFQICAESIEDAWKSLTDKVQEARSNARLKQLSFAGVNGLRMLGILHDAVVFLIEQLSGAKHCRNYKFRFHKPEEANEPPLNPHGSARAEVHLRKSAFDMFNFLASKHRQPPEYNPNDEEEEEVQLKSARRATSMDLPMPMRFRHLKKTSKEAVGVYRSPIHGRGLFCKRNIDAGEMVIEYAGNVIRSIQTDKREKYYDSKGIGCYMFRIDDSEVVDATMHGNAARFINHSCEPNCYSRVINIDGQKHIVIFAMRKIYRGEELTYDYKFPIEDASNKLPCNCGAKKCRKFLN

The compounds below were run against Histone-lysine N-methyltransferase 2A (Homo sapiens) (UniProt Q03164) (assay: qHTS Fluorescence Polarization Assay for Inhibitors of MLL CXXC domain - DNA interaction). Settings: MLL-CXXC / FITC-HOXA9 DNA fluorescence polarization; activity change, negative = inhibition: at 115 µM (top of the series).
Source text: NIH Chemical Genomics Center [NCGC] NIH Molecular Libraries Probe Production centers Network [MLPCN] MLPCN Grant: DA027717-01A1 Assay Submitter (PI): John Bushweller NCGC Assay Overview: The MLL (Mixed Lineage Luekemia) gene is involved in chromosomal translocation that results in either acute lymphoid leukemia (ALL) or acute myeloid leukemia (AML). Chromasomal translocation of MLL gene is responsible for the fusion of N-terminal MLL to more than 60 different partner genes in frame. Many of the MLL partner genes contain transcription activation domains or function as transcriptional activators. Despite the heterogeneity of fusion partners, the N-terminus of MLL fusion proteins always consists of the N-terminal menin binding motif and the CXXC domain. The MLL-CXXC domain specifically recognizes unmethylated CpG sequences of the HOX-A gene. Disruption of the MLL-CXXC and HOX-A gene interaction leads to down regulation of HOX-A gene expression and may potentially reverse leukemogenesis. We have miniaturized and optimized an in-vitro assay to screen for inhibitors of the MLL-CXXC domain and HOX-A DNA interaction, which could have utility in MLL fusion leukemias.
The affinity purified MLL-CXXC domain, unlabeled HOX-A9 DNA strand, fluorescein (FLSN) labeled HOX-A9 DNA strand were kindly supplied by the laboratory of Dr. John Bushweller, University of Virginia. All reagents were stored in single use aliquots at -80C. Assay Reagents: Assay buffer: 50 mM TRIS-HCl pH 7.5, 50 mM NaCl, 1 mM DTT. Add 0.05% BSA prior to reaction setup. Assay Procedure: 1.Dispense 1 ul of a 7 uM MLL-CXXC solution prepared in assay buffer into column 1-48. 2.Transfer 23 nl of compounds and unlabeled HOX-A9 per well. 3.Incubate for 5 minutes at ambient. 4.Dispense 1ul of a 50 nM FLSN-HOX-A9 solution prepared in assay buffer into columns 1-48 5.Centrifuge for 30 seconds at 1000 RPM. 6.Incubate for 30 minutes at ambient. 7.Read using the Envision reader fluorescent polarization protocol.
Potency is the fitted concentration of half-maximal effect.

Compound	Potency	activity change, negative = inhibition
COc1ccc(/C=N/Nc2nc(N)cc(Cl)n2)cc1OC	inconclusive: 63.1 µM [inhibitor, single point]	–
O=C(NC(=S)Nc1ccccc1N1CCCC1)c1ccco1	inconclusive: 35.5 µM [inhibitor, partial curve]	–
Cc1ccc(C2C(C(=O)c3ccco3)=C(O)C(=O)N2c2nnc(C)s2)cc1 (configuration not stated)	inconclusive: 3.16 µM [inhibitor, full curve, poor fit]	–
C/C(=N\NC(=O)c1cccs1)c1ccncc1	inconclusive: 14.1 µM [fluorescent, side channel, single point]	–
CCOc1cc(/C=C\[N+](=O)[O-])ccc1OCC(=O)Nc1ccccc1C	inactive	–
C/C(N)=C(/C#N)C(=O)CN1C(=O)NC(Cc2c[nH]c3ccccc23)C1=O (configuration not stated)	inconclusive: 28.2 µM [fluorescent, side channel, partial curve]	–
CCn1c(SCC(=O)Nc2ccc3c(c2)OCCO3)nnc1-c1cccnc1	inconclusive: 70.8 µM [fluorescent, side channel, single point]	–
O=C(CCN1CCOCC1)NNC(=O)Nc1cccc(C(F)(F)F)c1	inconclusive: 3.16 µM [fluorescent, side channel, partial curve]	–
CCN(CC(=O)NC1CC1)S(=O)(=O)c1ccccc1	inconclusive: 15.8 µM [quencher, side channel, single point]	–
CC(=O)c1ccc(Cc2ccc(C(C)=O)cc2)cc1	inconclusive: 89.1 µM [fluorescent, side channel, single point]	–
Cc1ccc(/C=N\Nc2nc3ccc(Cl)cc3[nH]2)o1	inactive	–
O=C(OCCN1CCCCC1)c1ccccc1Br	inconclusive: 11.2 µM [fluorescent, side channel, single point]	–
O=c1nc2c(O)cccn2c2c1c(=O)[nH]c1ccccc12	active: 31.6 µM	–
Cc1ccc(C(=O)N/C(=C/c2ccco2)C(=O)Nc2cccc(C(=O)O)c2)cc1	inconclusive: 7.94 µM [fluorescent, side channel, single point]	–
O=C1OC(c2ccccc2)/C(=C(/O)c2ccccc2)C1=O (configuration not stated)	inconclusive: 17.8 µM [inhibitor, partial curve]	–
Cc1cc(=O)[nH]c2c(N=Nc3ccc(O)cc3)c(N)nn12	inconclusive: 25.1 µM [fluorescent, side channel, partial curve]	–
COc1cc(CN2CCC(n3nccc3NC(=O)c3ccccc3OC)CC2)ccc1F	inconclusive: 10 µM [fluorescent, side channel, single point]	–
CN1C(=O)/C(=C/c2ccc3c(c2)OCO3)N=C1c1ccccc1	inconclusive: 31.6 µM [fluorescent, single point]	–
O=C(COc1ccc(F)cc1)Nc1ccc2c(c1)OCCO2	inconclusive: 14.1 µM [quencher, side channel, single point]	–
CCCCNC(=O)CCCCC(=O)N/N=C/c1cccc(Cl)c1	–	inconclusive: 5.12% [phenotype inactive]
O=C(NC1CCCCC1)C(c1ccc2ncccc2c1)N(Cc1ccc(F)cc1)C(=O)c1cccs1 (configuration not stated)	inactive	–

Part of the list above in another layout:
Compound | Potency | activity change, negative = inhibition
C/C(=N\NC(=O)c1cccs1)c1ccncc1 | inconclusive: 14.1 µM [fluorescent, side channel, single point] | –
CCN(CC(=O)NC1CC1)S(=O)(=O)c1ccccc1 | inconclusive: 15.8 µM [quencher, side channel, single point] | –
CN1C(=O)/C(=C/c2ccc3c(c2)OCO3)N=C1c1ccccc1 | inconclusive: 31.6 µM [fluorescent, single point] | –

(next part)

Compound	Potency	activity change, negative = inhibition
CC(=O)NN1C(=O)/C(=C\c2ccc(O)cc2)SC1=S	inconclusive: 44.7 µM [fluorescent, side channel, partial curve]	–
Nc1nc(SCc2ccc([N+](=O)[O-])cc2)c2ncn([C@@H]3O[C@H](CO)[C@H](O)[C@H]3O)c2n1	inactive	–
CCN(CC)c1ccc(/C=C/C(=O)C2C(=O)C=C(C)OC2=O)cc1 (configuration not stated)	inconclusive: 6.31 µM [fluorescent, side channel, full curve]	–
COc1cc(OC)cc(C(=O)Nc2ccc(CN3CCCCC3)cc2)c1	inconclusive: 44.7 µM [inhibitor, single point]	–
COc1ccc(OC)c(/C=C2\N=C(c3ccccc3)OC2=O)c1	inconclusive: 35.5 µM [fluorescent, side channel, partial curve]	–
Cc1cc(S(=O)(=O)Nc2noc3ccccc23)ccc1F	inconclusive: 89.1 µM [inhibitor, single point]	–
CCN(CC)c1ccc(-c2c(C#N)c(N)nc(OC)c2C#N)cc1	inconclusive: 39.8 µM [fluorescent, side channel, single point]	–
O=C1OCC(CO)(CO)N=C1NNc1ccccc1[N+](=O)[O-]	inconclusive: 11.2 µM [quencher, side channel, single point]	–
CC(C)COc1ccc(C(=O)OCCN2CCCCC2)cc1	inconclusive: 35.5 µM [fluorescent, side channel, partial curve, poor fit]	–
CCCCNC(=S)Nc1ccc(Oc2ccccc2)cc1	inconclusive: 15.8 µM [inhibitor, single point]	–
Cc1cccc(C)c1NC(=O)CN(C)C(=O)Cn1c(=O)cnc2ccccc21	inconclusive: 14.1 µM [fluorescent, side channel, single point]	–
CN1CC=C2C(C#N)=C(N)C(C#N)(C#N)C(c3cccc(Cl)c3Cl)C2C1 (configuration not stated)	inconclusive: 35.5 µM [fluorescent, side channel, partial curve]	–
CCN(c1ccccc1)S(=O)(=O)c1cc(C(=O)Oc2ccc3c(C)cc(=O)oc3c2)ccc1C	inconclusive: 3.16 µM [fluorescent, side channel, full curve, poor fit]	–
Cc1ccccc1Nc1n[nH]c(C)c1[N+](=O)[O-]	inconclusive: 31.6 µM [fluorescent, side channel, single point]	–
COc1cc2c(cc1OC)C(c1cccs1)N(C(=O)c1cccc(S(=O)(=O)N(C)C)c1)CC2 (configuration not stated)	inactive	–
CCCN1CCc2c(sc(NC(=O)c3ccc(S(=O)(=O)N(C)c4ccccc4)cc3)c2C(N)=O)C1	inconclusive: 28.2 µM [fluorescent, side channel, partial curve]	–
CC(=O)Nc1ccc(Nc2cc(N(C)C)c3nonc3c2[N+](=O)[O-])cc1	inconclusive: 12.6 µM [fluorescent, side channel, single point]	–
COc1cnc(-c2ccccn2)nc1Oc1cccc(C(F)(F)F)c1	inconclusive: 39.8 µM [inhibitor, single point]	–
Cc1ccc2nc(SCC(=O)Nc3ccc4sc(C)nc4c3)c(C#N)cc2c1	inactive	–
Oc1cccc2ccc(/C=C/c3ccccc3Br)nc12	inconclusive: 25.1 µM [fluorescent, side channel, partial curve, poor fit]	–
CC(C)CC1=NN2C(=N)/C(=C\c3coc4ccccc4c3=O)C(=O)N=C2S1	inconclusive: 17.8 µM [fluorescent, side channel, partial curve]	–

Compound	Potency	activity change, negative = inhibition
COc1ccccc1NC(=S)N(Cc1ccccc1)Cc1cccs1	inconclusive: 3.16 µM [fluorescent, side channel, full curve]	–
O=C(Nc1c(Cl)cc(Cl)cc1-c1nc2ccccc2s1)c1ccc(Br)o1	inactive	–
CCCCOC(=O)Cn1c2ccc(OC)cc2c2nc3ccccc3nc21	inactive	–
S=c1[nH]ncn1/N=C/c1cccc(Oc2ccccc2)c1	inconclusive: 25.1 µM [fluorescent, side channel, single point]	–
O=C(COc1ccccc1)Nc1cccc(-c2nc3ccccc3[nH]2)c1	inactive	–
COc1cccc(C2Nc3ccccc3C(=O)N2c2ccc(F)cc2)c1O (configuration not stated)	inconclusive: 8.91 µM [inhibitor, single point]	–
COc1cc(/C=C(\C#N)c2ccccn2)cc(OC)c1O	inconclusive: 39.8 µM [fluorescent, side channel, partial curve]	–
CCOC(=O)N1CCC2(CC1)C(C#N)=C(N)Oc1c2c(C)nn1-c1cccc(Cl)c1	inconclusive: 39.8 µM [inhibitor, single point]	–
Cc1ccccc1-c1coc2cc(O)ccc2c1=O	inactive	–
Cc1ccc(NC(=O)CN(C)CC(=O)Nc2ccccc2C#N)cc1	inconclusive: 6.31 µM [fluorescent, side channel, full curve, poor fit]	–
COc1ccc(CNC(=O)CN(Cc2ccc(C)cc2)C(=O)c2csnn2)cc1	inconclusive: 63.1 µM [fluorescent, side channel, single point]	–
CSc1cccc(NC(=O)C2CCCN(S(=O)(=O)c3cccs3)C2)c1 (configuration not stated)	inactive	–
CC[N+]1=C(C)C(C)(C)c2cc(C)ccc21	inactive	–
COc1ccccc1-c1coc2c(CN(C)C)c(O)ccc2c1=O	inactive	–
COc1ccc(CN2C(=O)c3cccnc3C2Nc2ccc(C)cc2)cc1 (configuration not stated)	inactive	–
COc1cccc2c(=O)c(C(=O)O)c[nH]c12	inactive	–
COc1ccc(Cc2nc3ccc(C(=O)NCc4cc(C)no4)cc3o2)cc1OC	inconclusive: 10 µM [fluorescent, side channel, single point]	–
O=C(COC(=O)c1ccc2ccccc2n1)NCc1ccccc1	inconclusive: 2.24 µM [quencher, side channel, single point]	–
CC(=O)Nc1ccc(NC(=O)Cn2nc([N+](=O)[O-])c(Br)c2C)cc1	inconclusive: 10 µM [fluorescent, side channel, full curve]	–
CCN(CC)CCNc1ncnc2c1sc1nc(N3CCCC3)c3c(c12)CC(C)(C)OC3	inconclusive: 44.7 µM [quencher, side channel, single point]	–
